Measured values: the supplement of paper PMC9015667
Counter-ions that a name gives are not always drawn. This is one part of the list. Most values come without repeats; read them as rough.

Tests used:
Assay in all cases: reduction in cell viability relative to untreated/vehicle; higher = more growth inhibition
Settings in all cases: 200 nM; 72 h
[1] = test system: M229P (parental melanoma line)
[2] = test system: M229R (matched melanoma line resistant to BRAF inhibitors)
[3] = test system: M238P (parental melanoma line)
[4] = test system: M238R (matched melanoma line resistant to BRAF inhibitors)
[5] = test system: M249P (parental melanoma line)
[6] = test system: M249R (matched melanoma line resistant to BRAF inhibitors)
[7] = test system: UACC62P (parental melanoma line)
[8] = test system: UACC62R (matched melanoma line resistant to BRAF inhibitors)

| Structure (SMILES) | reduction in cell viability [1] [%] | reduction in cell viability [2] [%] | reduction in cell viability [3] [%] | reduction in cell viability [4] [%] | reduction in cell viability [5] [%] | reduction in cell viability [6] [%] | reduction in cell viability [7] [%] | reduction in cell viability [8] [%] |
| --- | --- | --- | --- | --- | --- | --- | --- | --- |
| O=c1cccc2n1C[C@@H]1CNC[C@H]2C1 [Cytisine] | < 0 | < 0 | < 0 | < 0 | < 0 | < 0 | < 0 | < 0 |
| CN[C@H]1CCc2cc(OC)c(OC)c(OC)c2-c2ccc(OC)c(=O)cc21 [Demecolcine] | 24.3 | 39.8 | 43.1 | 34.8 | 52.5 | 47.4 | 37.2 | 75 |
| CC(C)NC1CCn2c(=O)[nH]c3cccc(c32)C1O (stereo unspecified) [Zilpaterol] | < 0 | < 0 | < 0 | < 0 | < 0 | < 0 | < 0 | < 0 |
| CC(C)(C)c1cc(C=C(C#N)C#N)cc(Br)c1O | < 0 | 6.8 | < 0 | < 0 | < 0 | < 0 | < 0 | < 0 |
| CN1[C@@H]2CC(O)C[C@H]1[C@@H]1O[C@@H]12 (stereo partly specified) [Scopine] | < 0 | < 0 | < 0 | < 0 | < 0 | < 0 | < 0 | < 0 |
| CCC(=O)O[C@H]1CC[C@H]2[C@@H]3CCC4=CC(=O)CC[C@]4(C)[C@H]3CC[C@]12C [Testosterone propionate] | < 0 | < 0 | < 0 | < 0 | < 0 | < 0 | < 0 | < 0 |
| O=c1[nH]c2ccc(Cl)cc2c(N[C@@H]2CN3CCC2CC3)c1-c1nc2ccccc2[nH]1 | 48.1 | 80.5 | 68.9 | 47.4 | < 0 | 12.4 | 11.1 | 65 |
| COc1ccc2c(c1)[C@]13CCCC[C@@H]1[C@H](C2)N(C)CC3 [Dextromethorphan hydrobromide] | < 0 | 0.55 | < 0 | < 0 | < 0 | < 0 | < 0 | < 0 |
| CN1C(=O)CCS(=O)(=O)C1c1ccc(Cl)cc1 (stereo unspecified) [Chlormezanone] | < 0 | < 0 | < 0 | < 0 | < 0 | < 0 | 7.33 | < 0 |
| CC(C)CC(N(C)C)C1(c2ccc(Cl)cc2)CCC1 (stereo unspecified) [Sibutramine hydrochloride] | < 0 | < 0 | < 0 | < 0 | < 0 | < 0 | < 0 | < 0 |
| O=C(Oc1ccc([N+](=O)[O-])cc1)N1CCN(Cc2cccc(Oc3ccccc3)c2)CC1 | < 0 | < 0 | < 0 | < 0 | < 0 | 2.43 | 3.64 | < 0 |
| CCCCCC[C@H]1C(=O)O[C@H](C)[C@H](NC(=O)c2cccc(NC=O)c2O)C(=O)O[C@@H](C)[C@@H]1OC(=O)CC(C)C [Antimycin A] | < 0 | 13.4 | 6.28 | < 0 | 0.64 | < 0 | < 0 | 37.6 |
| CCN(C)C(=O)Oc1cccc([C@H](C)N(C)C)c1 [Rivastigmine tartrate] | < 0 | < 0 | < 0 | < 0 | < 0 | < 0 | < 0 | < 0 |
| CC1(C)CC(O)CC(C)(C)N1[O] [Tempol] | < 0 | < 0 | < 0 | < 0 | < 0 | < 0 | < 0 | < 0 |
| CC(C)c1cccc(C(C)C)c1O [Propofol] | < 0 | < 0 | < 0 | < 0 | < 0 | < 0 | < 0 | < 0 |
| CC[C@@H]1[C@@H](C)O[C@@](O)([C@@H](C)[C@H](O)[C@H](C)[C@H]2OC(=O)/C=C/C=C/[C@H](C)[C@@H]([C@@H](C)[C@@H](O)[C@H](C)[C@@]3(O)C[C@@H](O[C@H]4C[C@H](O)[C@H](O)[C@H](C)O4)[C@H](CC)[C@@H](C)O3)OC(=O)/C=C/C=C/[C@@H]2C)C[C@H]1O[C@H]1C[C@H](O)[C@H](O)[C@H](C)O1 [Azalomycin-B] | 88.6 | 88.5 | 84.1 | 89.3 | 83.8 | 88.9 | 94.7 | 91.3 |
| N=c1c2c(-c3ccccc3)c(-c3ccccc3)n(Cc3ccccc3)c2ncn1C1CCC(O)CC1 (stereo unspecified) | 13.4 | 28.6 | 25.5 | < 0 | 3.77 | 7.58 | 13.5 | 56.6 |
| CC(=O)O[C@@]12CO[C@@H]1C[C@H](O)[C@@]1(C)C(=O)[C@H](O)C3=C(C)[C@@H](O)C[C@@](O)([C@@H](OC(=O)c4ccccc4)[C@H]21)C3(C)C [10-Deacetylbaccatin] | < 0 | < 0 | < 0 | < 0 | < 0 | 2.99 | 6.45 | < 0 |
| COC(=O)[C@@H](N)CCCNC(=N)N[N+](=O)[O-] | < 0 | < 0 | < 0 | < 0 | < 0 | < 0 | 13.7 | < 0 |
| CN1CCN(C(=O)O[C@H]2c3nccnc3C(=O)N2c2ccc(Cl)cn2)CC1 [Eszopiclone] | < 0 | < 0 | < 0 | < 0 | < 0 | 2.15 | < 0 | < 0 |
| C=C1C[C@@H]2[C@H](CC[C@]3(C)C(=O)CC[C@@H]23)[C@@]2(C)C=CC(=O)C=C12 [Exemestane] | < 0 | < 0 | < 0 | < 0 | < 0 | < 0 | 7.48 | < 0 |

In the list so far, these contain nitrogen in an aromatic ring.

| Structure (SMILES) | reduction in cell viability [1] [%] | reduction in cell viability [2] [%] | reduction in cell viability [3] [%] | reduction in cell viability [4] [%] | reduction in cell viability [5] [%] | reduction in cell viability [6] [%] | reduction in cell viability [7] [%] | reduction in cell viability [8] [%] |
| --- | --- | --- | --- | --- | --- | --- | --- | --- |
| O=c1cccc2n1C[C@@H]1CNC[C@H]2C1 [Cytisine] | < 0 | < 0 | < 0 | < 0 | < 0 | < 0 | < 0 | < 0 |
| CC(C)NC1CCn2c(=O)[nH]c3cccc(c32)C1O (stereo unspecified) [Zilpaterol] | < 0 | < 0 | < 0 | < 0 | < 0 | < 0 | < 0 | < 0 |
| O=c1[nH]c2ccc(Cl)cc2c(N[C@@H]2CN3CCC2CC3)c1-c1nc2ccccc2[nH]1 | 48.1 | 80.5 | 68.9 | 47.4 | < 0 | 12.4 | 11.1 | 65 |
| N=c1c2c(-c3ccccc3)c(-c3ccccc3)n(Cc3ccccc3)c2ncn1C1CCC(O)CC1 (stereo unspecified) | 13.4 | 28.6 | 25.5 | < 0 | 3.77 | 7.58 | 13.5 | 56.6 |
| CN1CCN(C(=O)O[C@H]2c3nccnc3C(=O)N2c2ccc(Cl)cn2)CC1 [Eszopiclone] | < 0 | < 0 | < 0 | < 0 | < 0 | 2.15 | < 0 | < 0 |

Further records:

| Structure (SMILES) | reduction in cell viability [1] [%] | reduction in cell viability [2] [%] | reduction in cell viability [3] [%] | reduction in cell viability [4] [%] | reduction in cell viability [5] [%] | reduction in cell viability [6] [%] | reduction in cell viability [7] [%] | reduction in cell viability [8] [%] |
| --- | --- | --- | --- | --- | --- | --- | --- | --- |
| CC[C@@H](C(=O)[C@@H](C)[C@@H](O)[C@H](C)[C@@H]1O[C@@H]([C@@H](CC)C(=O)O)CC[C@@H]1C)[C@H]1O[C@]2(C=C[C@@H](O)[C@]3(CC[C@@](C)([C@H]4CC[C@](O)(CC)[C@H](C)O4)O3)O2)[C@H](C)C[C@@H]1C [Salinomycin] | < 0 | < 0 | < 0 | < 0 | < 0 | < 0 | < 0 | < 0 |
| CCOC(=O)Nc1ccc(NCc2ccc(F)cc2)cc1N [Retigabine] | < 0 | < 0 | < 0 | < 0 | < 0 | < 0 | < 0 | < 0 |
| CNC(=O)c1ccc(N2C(=S)N(c3ccc(C#N)c(C(F)(F)F)c3)C(=O)C23CCC3)cc1F | < 0 | < 0 | < 0 | < 0 | < 0 | < 0 | < 0 | < 0 |
| N.N.[Cl][Pt][Cl] [Cisplatin] | < 0 | < 0 | < 0 | < 0 | < 0 | < 0 | < 0 | < 0 |
| O=C(O)C(=O)c1cn(Cc2ccccc2)c2ccc(-c3ccc(OC(F)(F)F)cc3)cc12 [Tiplasinin] | < 0 | < 0 | < 0 | < 0 | < 0 | < 0 | 8.07 | < 0 |
| CC[C@H]1CN2CCc3cc(OC)c(OC)cc3[C@@H]2C[C@@H]1C[C@H]1NCCc2cc(OC)c(OC)cc21 [Emetine] | 90.1 | 68.5 | 87 | 87.4 | 96 | 95 | 83.2 | 82.6 |
| N=C1NC(=O)N2CC12 (stereo unspecified) [Imexon] | < 0 | < 0 | < 0 | < 0 | < 0 | 2 | 1.82 | < 0 |
| CN(C)CCN(C)CCc1ccc(Cl)c(Cl)c1 | < 0 | < 0 | < 0 | < 0 | < 0 | < 0 | < 0 | < 0 |
| Cn1c(CCCC(=O)O)nc2cc(N(CCCl)CCCl)ccc21 [Bendamustine] | < 0 | < 0 | < 0 | < 0 | 0.6 | < 0 | 5.89 | < 0 |
| C[C@H]1CCC/C=C/[C@@H]2C[C@H](O)C[C@H]2[C@H](O)/C=C/C(=O)O1 [Cyanein] | 56.7 | 60.1 | 46.8 | 49.4 | 58.5 | 76.9 | 49.2 | 54.3 |
| O=C(Nc1ccncc1)C(=O)c1cn(Cc2ccc(Cl)cc2)c2ccccc12 [Indibulin] | 18.4 | 33.5 | 70.8 | 65.4 | 60 | 42.1 | 46.2 | 87 |
| CCOC(=O)c1cncn1[C@H](C)c1ccccc1 [Etomidate] | < 0 | < 0 | < 0 | < 0 | < 0 | < 0 | < 0 | < 0 |
| COc1cc2c(c(OC)c1OC)-c1ccc(OC)c(=O)cc1[C@@H](NC(C)=O)CC2 [Colchicine] | 41.3 | 50.7 | 63.5 | 72.6 | 62.3 | 58.6 | 55.4 | 75.3 |
| C[C@@H]1CC[C@H]2[C@@H](C)C(=O)O[C@@H]3O[C@@]4(C)CC[C@@H]1[C@]32OO4 [Artemisinin] | < 0 | < 0 | < 0 | < 0 | < 0 | 5.44 | < 0 | < 0 |
| Cc1n[nH]c2ccc(-c3cncc(OC[C@@H](N)Cc4c[nH]c5ccccc45)c3)cc12 | 77.6 | 69.4 | 81 | 67.9 | 82.4 | 80.6 | 92.5 | 88.3 |
| C[N+]1(C)[C@@H]2C[C@@H](OC(=O)[C@H](CO)c3ccccc3)C[C@H]1[C@@H]1O[C@@H]12 [Scopolamine methylbromide] | < 0 | < 0 | < 0 | < 0 | < 0 | 0.66 | 14.4 | < 0 |
| CC(=O)N(C)c1cccc(-c2ccnc3c(C(=O)c4cccs4)cnn23)c1 [Indiplon] | < 0 | < 0 | < 0 | < 0 | < 0 | < 0 | < 0 | < 0 |
| CC(O)(CS(=O)(=O)c1ccc(F)cc1)C(=O)Nc1ccc(C#N)c(C(F)(F)F)c1 (stereo unspecified) [Bicalutamide] | < 0 | < 0 | < 0 | < 0 | < 0 | < 0 | < 0 | < 0 |
| CC(C)N(CCNC(=O)CN1CCCC1=O)C(C)C [Pramiracetam hydrochloride] | < 0 | < 0 | < 0 | < 0 | < 0 | 5.82 | < 0 | < 0 |
| CCCN1CCOC2c3cc(O)ccc3OCC21 (stereo unspecified) | < 0 | 0.83 | < 0 | < 0 | < 0 | < 0 | < 0 | < 0 |
| C[C@]12CCC(=O)C=C1CC[C@@H]1[C@@H]2CC[C@@]2(C)[C@H]1CC[C@]2(C)O [17-Methyltestosterone] | < 0 | < 0 | < 0 | < 0 | < 0 | < 0 | < 0 | < 0 |
